Assay results reported in paper PMC9974310.
These are yes or no findings as the source states them, for the method shown. In cells and extracts the contact can be indirect. Some results given as binding are weak or reduced against the parent protein; the word gives no strength.

Sequences of proteins named here, by UniProt entry; tags and fusion partners are left off.
UniProt Q15291: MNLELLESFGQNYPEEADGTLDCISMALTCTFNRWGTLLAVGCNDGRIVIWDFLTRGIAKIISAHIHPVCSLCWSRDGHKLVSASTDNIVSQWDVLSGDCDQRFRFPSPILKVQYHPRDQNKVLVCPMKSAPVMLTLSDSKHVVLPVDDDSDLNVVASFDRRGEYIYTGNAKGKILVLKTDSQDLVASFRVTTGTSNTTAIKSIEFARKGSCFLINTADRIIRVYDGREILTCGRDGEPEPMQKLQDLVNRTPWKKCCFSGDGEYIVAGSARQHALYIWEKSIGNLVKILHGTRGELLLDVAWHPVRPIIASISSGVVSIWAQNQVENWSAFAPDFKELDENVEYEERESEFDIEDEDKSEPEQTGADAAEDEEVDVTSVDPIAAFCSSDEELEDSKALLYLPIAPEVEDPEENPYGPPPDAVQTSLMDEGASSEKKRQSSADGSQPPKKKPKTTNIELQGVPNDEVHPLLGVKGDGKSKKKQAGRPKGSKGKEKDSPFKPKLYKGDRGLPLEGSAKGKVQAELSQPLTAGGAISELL

Molecular target: T1, WSB2 (WD repeat and SOCS box containing protein 2) (human (endogenous; human melanoma cells or tissues, sample not named)) (UniProt Q9NYS7)
T1 sequence: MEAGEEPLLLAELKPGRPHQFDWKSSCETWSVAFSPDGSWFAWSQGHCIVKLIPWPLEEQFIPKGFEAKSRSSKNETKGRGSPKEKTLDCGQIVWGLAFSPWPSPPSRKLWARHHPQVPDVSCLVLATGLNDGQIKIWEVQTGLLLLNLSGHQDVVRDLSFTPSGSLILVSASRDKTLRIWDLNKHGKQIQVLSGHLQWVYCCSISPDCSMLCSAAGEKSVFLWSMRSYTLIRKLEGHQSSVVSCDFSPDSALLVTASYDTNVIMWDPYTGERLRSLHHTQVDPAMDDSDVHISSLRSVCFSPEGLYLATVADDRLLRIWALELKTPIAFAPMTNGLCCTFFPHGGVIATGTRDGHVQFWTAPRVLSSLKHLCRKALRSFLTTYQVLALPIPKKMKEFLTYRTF
Assay: co-IP; WSB2 antibody (2 µl) added to 200 µl protein lysate, 24 h at 4°C, Protein A/G magnetic beads 3 h at 4°C; normal rabbit IgG as negative control; western blot

Substance: Retinoblastoma-binding protein 5 (RBBP5) (from UniProt Q15291 1-538)
- binding: binds
